Experimental data taken from paper PMC10602077.
No constants are given. Whether binding was seen depends on the method and setting. In cells and extracts the contact can be indirect. Some results given as binding are weak or reduced against the parent protein; the word gives no strength.

By UniProt entry, the sequences of proteins in these tests, tags left out.
UniProt Q13216: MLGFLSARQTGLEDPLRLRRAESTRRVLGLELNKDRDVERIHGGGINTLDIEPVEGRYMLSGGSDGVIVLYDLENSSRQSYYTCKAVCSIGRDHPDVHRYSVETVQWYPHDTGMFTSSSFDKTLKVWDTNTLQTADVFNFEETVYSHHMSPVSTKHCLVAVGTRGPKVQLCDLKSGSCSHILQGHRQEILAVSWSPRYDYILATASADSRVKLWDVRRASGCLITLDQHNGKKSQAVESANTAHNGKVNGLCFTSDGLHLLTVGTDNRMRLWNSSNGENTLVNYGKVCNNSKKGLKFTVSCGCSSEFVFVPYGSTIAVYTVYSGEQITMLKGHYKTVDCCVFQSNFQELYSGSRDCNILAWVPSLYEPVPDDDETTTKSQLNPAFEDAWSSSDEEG
UniProt Q92905: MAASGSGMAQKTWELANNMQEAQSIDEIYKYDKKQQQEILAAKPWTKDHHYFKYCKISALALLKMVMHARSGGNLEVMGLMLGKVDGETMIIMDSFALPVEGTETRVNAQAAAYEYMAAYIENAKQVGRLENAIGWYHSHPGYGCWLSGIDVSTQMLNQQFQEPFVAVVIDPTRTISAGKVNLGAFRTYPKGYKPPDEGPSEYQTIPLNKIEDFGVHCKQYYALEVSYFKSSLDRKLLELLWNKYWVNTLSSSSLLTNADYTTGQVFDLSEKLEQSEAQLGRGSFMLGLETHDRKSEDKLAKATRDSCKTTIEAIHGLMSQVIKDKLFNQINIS
UniProt Q13619: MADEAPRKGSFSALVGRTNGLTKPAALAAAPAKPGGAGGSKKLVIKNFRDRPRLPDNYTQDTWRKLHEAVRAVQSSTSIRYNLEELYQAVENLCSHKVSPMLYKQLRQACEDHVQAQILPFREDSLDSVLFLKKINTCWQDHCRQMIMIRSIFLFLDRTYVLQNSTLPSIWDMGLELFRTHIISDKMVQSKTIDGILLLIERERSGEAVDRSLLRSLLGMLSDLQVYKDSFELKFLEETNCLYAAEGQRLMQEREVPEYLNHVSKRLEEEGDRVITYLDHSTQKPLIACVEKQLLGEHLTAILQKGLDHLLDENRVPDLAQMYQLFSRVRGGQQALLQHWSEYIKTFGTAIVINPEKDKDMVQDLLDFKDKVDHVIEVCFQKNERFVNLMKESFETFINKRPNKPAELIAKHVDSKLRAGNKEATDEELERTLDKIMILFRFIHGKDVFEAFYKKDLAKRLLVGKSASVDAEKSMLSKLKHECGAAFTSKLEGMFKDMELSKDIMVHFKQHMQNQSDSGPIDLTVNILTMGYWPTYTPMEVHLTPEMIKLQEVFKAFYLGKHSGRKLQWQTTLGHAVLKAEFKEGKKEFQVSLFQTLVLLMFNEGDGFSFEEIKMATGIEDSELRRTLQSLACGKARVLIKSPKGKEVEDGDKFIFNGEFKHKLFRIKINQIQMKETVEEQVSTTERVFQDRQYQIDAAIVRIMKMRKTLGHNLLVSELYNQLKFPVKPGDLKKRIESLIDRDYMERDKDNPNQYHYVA

What was measured:
CSA-GFP = CSA-GFP (UniProt Q13216); assay: co-IP; GFP-Trap beads, 90 min at 4 °C, lysate in 30 mM HEPES pH 7.5, 130 mM NaCl, 1 mM MgCl2, 0.5% Triton X-100, sonicated, Benzonase; immunoblot; cells mock treated or UV irradiated (also DDA1 KO cells, 1 and 10 h after 10 J.m^-2)
[1] = molecular target: CSA-mClover (human (endogenous in HCT116)) (UniProt Q13216); assay: as above

| Substance | binding (CSA-GFP) | binding [1] |
| --- | --- | --- |
| CSN5 (from UniProt Q92905 1-334) | binds | binds |
| CUL4A (from UniProt Q13619 1-759) | binds | binds |
